PubChem BioAssay AID504784 – Drosophila RNAi Screening Center – 2011
The deposit covers about 17,000 reagents; this is an unselected part of those with a known target gene and a result. 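Each column is one replicate's B-score; the combined score over replicates was not deposited, so single values may mislead.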 Names joined by + are all predicted targets of the reagent. Further read-outs or replicates are left out here.

Test: 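Genome-wide knock-down for genes giving too much or too little stored lipid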 (primary screen)
System: Drosophila Kc167 embryonic cells
Reagents: long dsRNA against Drosophila genes, about 250 ng dsRNA per well
Duration: 4 days
Treatment: cells fed 400 µM oleic acid bound to BSA
Measured: 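Cells imaged and segmented; ratio of lipid droplet area to nuclear area, log-transformed, then normalised as a B-score over the screen; higher means more stored lipid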
Reading the numbers: droplet/nuclear area B-score: higher = more stored lipid (overstorage)

What did the screen give for MsrA (GeneID 39675) [DRSC11159]?
droplet/nuclear area B-score, replicate 1: 0.00785

How did the screen score Ibf2 (GeneID 41102) [DRSC16551]?
droplet/nuclear area B-score, replicate 1: 0.302

With CG17233 (GeneID 40220) [DRSC10259], how do the results read?
droplet/nuclear area B-score, replicate 1: -1.17

For SmydA-4 (GeneID 32034) [DRSC19390], what does the deposit list?
droplet/nuclear area B-score, replicate 1: -2.87

For SmydA-4 (GeneID 32034) [DRSC21866], how do the results read?
droplet/nuclear area B-score, replicate 1: -0.0256

What did the screen give for PolG1 (GeneID 34792) [DRSC03621]?
droplet/nuclear area B-score, replicate 1: -0.752

Which result is listed for CG9992 (GeneID 32605) [DRSC20226]?
droplet/nuclear area B-score, replicate 1: -0.324

With CG9992 (GeneID 32605) [DRSC21643], what was measured?
droplet/nuclear area B-score, replicate 1: 0.267

For CG6610 (GeneID 38693) [DRSC10674], how do the results read?
droplet/nuclear area B-score, replicate 1: -1.88

What is on record for grass (GeneID 43273) [DRSC15911]?
droplet/nuclear area B-score, replicate 1: -0.458

With l(3)05822 (GeneID 47260) [DRSC16202], what was measured?
droplet/nuclear area B-score, replicate 1: -1.98

Which result is listed for Or85c (GeneID 41008) [DRSC16766]?
droplet/nuclear area B-score, replicate 1: 0.106

How did the screen score CG13609 (GeneID 42883) [DRSC14612]?
droplet/nuclear area B-score, replicate 1: -0.111

Which result is listed for CG13609 (GeneID 42883) [DRSC22843]?
droplet/nuclear area B-score, replicate 1: -1.19

For ASPP (GeneID 37422) [DRSC04305], what does the deposit list?
droplet/nuclear area B-score, replicate 1: 1.66

With ASPP (GeneID 37422) [DRSC23069], what was measured?
droplet/nuclear area B-score, replicate 1: -1.21

What did the screen give for CG12112 (GeneID 31794) [DRSC17809]?
droplet/nuclear area B-score, replicate 1: -0.914

How did the screen score Tie (GeneID 38559) [DRSC08104]?
droplet/nuclear area B-score, replicate 1: 0.623

For Tie (GeneID 38559) [DRSC08702], what was measured?
droplet/nuclear area B-score, replicate 1: -2.69

What is on record for VhaPPA1-2 (GeneID 41806) [DRSC16176]?
droplet/nuclear area B-score, replicate 1: -0.061

In a second layout: entries from further up
{"Target gene": "SmydA-4 (GeneID 32034)", "amplicon": "DRSC19390", "droplet/nuclear area B-score, replicate 1": -2.87}
{"Target gene": "SmydA-4 (GeneID 32034)", "amplicon": "DRSC21866", "droplet/nuclear area B-score, replicate 1": -0.0256}
{"Target gene": "PolG1 (GeneID 34792)", "amplicon": "DRSC03621", "droplet/nuclear area B-score, replicate 1": -0.752}
{"Target gene": "CG9992 (GeneID 32605)", "amplicon": "DRSC20226", "droplet/nuclear area B-score, replicate 1": -0.324}
{"Target gene": "CG9992 (GeneID 32605)", "amplicon": "DRSC21643", "droplet/nuclear area B-score, replicate 1": 0.267}

The list goes on:
What did the screen give for CG12320 (GeneID 42189) [DRSC14498]?
droplet/nuclear area B-score, replicate 1: 1.16

Which result is listed for Semp1 (GeneID 34914) [DRSC01874]?
droplet/nuclear area B-score, replicate 1: 0.0939

For CG12099 (GeneID 38181) [DRSC08253], what does the deposit list?
droplet/nuclear area B-score, replicate 1: 1.4

What is on record for Muc68D (GeneID 39326) [DRSC10569]?
droplet/nuclear area B-score, replicate 1: -2.07

What is on record for CG4627 (GeneID 36457) [DRSC06873]?
droplet/nuclear area B-score, replicate 1: 0.216

What is on record for CG2901 (GeneID 31338) [DRSC18239]?
droplet/nuclear area B-score, replicate 1: 0.114

What is on record for CG16727 (GeneID 42338) [DRSC15139]?
droplet/nuclear area B-score, replicate 1: -0.631

What did the screen give for CG13562 (GeneID 37797) [DRSC04200]?
droplet/nuclear area B-score, replicate 1: 2.01

Which result is listed for Spx (GeneID 31558) [DRSC18720]?
droplet/nuclear area B-score, replicate 1: -3.66

With CG9784 (GeneID 32629) [DRSC20210], how do the results read?
droplet/nuclear area B-score, replicate 1: 0.142

With CG3505 (GeneID 41777) [DRSC15489], how do the results read?
droplet/nuclear area B-score, replicate 1: 2.96

How did the screen score Amnionless (GeneID 33199) [DRSC00317]?
droplet/nuclear area B-score, replicate 1: 0.466

With CG9521 (GeneID 32414) [DRSC20196], what does the deposit list?
droplet/nuclear area B-score, replicate 1: 0.0984

For Lrt (GeneID 37342) [DRSC06045], how do the results read?
droplet/nuclear area B-score, replicate 1: 0.345

For Hers + amn [DRSC20306], how do the results read?
droplet/nuclear area B-score, replicate 1: 0.164

How did the screen score CG18301 (GeneID 34451) [DRSC02662]?
droplet/nuclear area B-score, replicate 1: 0.439

What did the screen give for CG8851 (GeneID 33575) [DRSC00718]?
droplet/nuclear area B-score, replicate 1: -0.897

What did the screen give for CG16976 (retired record) (GeneID 38336) [DRSC08262]?
droplet/nuclear area B-score, replicate 1: -3.2

With CG16976 (retired record) (GeneID 38336) [DRSC08499], what does the deposit list?
droplet/nuclear area B-score, replicate 1: -0.588

For Obp73a (GeneID 2768955) [DRSC09907], what was measured?
droplet/nuclear area B-score, replicate 1: 0.303

With eIF2Balpha (GeneID 43549) [DRSC16332], what was measured?
droplet/nuclear area B-score, replicate 1: 0.404

How did the screen score Blm + CG14721 [DRSC14943]?
droplet/nuclear area B-score, replicate 1: 2.62

For CG15142 (GeneID 35059) [DRSC02443], what does the deposit list?
droplet/nuclear area B-score, replicate 1: 0.669

For CG31949 (GeneID 319042) [DRSC00110], what does the deposit list?
droplet/nuclear area B-score, replicate 1: 0.771

For CG17300 (GeneID 39489) [DRSC10260], what does the deposit list?
droplet/nuclear area B-score, replicate 1: -0.6

How did the screen score CG42729 (GeneID 3885667) [DRSC10236]?
droplet/nuclear area B-score, replicate 1: 0.839

What is on record for CG7382 (GeneID 33772) [DRSC03052]?
droplet/nuclear area B-score, replicate 1: -0.0515

With CG3701 (retired record) (GeneID 37568) [DRSC04408], how do the results read?
droplet/nuclear area B-score, replicate 1: -0.0584

With CG3701 (retired record) (GeneID 37568) [DRSC04409], what was measured?
droplet/nuclear area B-score, replicate 1: -0.0736

For Uba1 (GeneID 35998) [DRSC07567], what does the deposit list?
droplet/nuclear area B-score, replicate 1: -2.5

What is on record for Pvf2 (GeneID 33994) [DRSC00968]?
droplet/nuclear area B-score, replicate 1: -3.15

What did the screen give for Pvf2 (GeneID 33994) [DRSC02283]?
droplet/nuclear area B-score, replicate 1: 2.63
